# Experimental data from PubChem BioAssay AID504834 (National Center for Advancing Translational Sciences (NCATS), 2011).
# About 22,000 (6.9%) of roughly 320,000 compounds were called active. This list was built around the results that the source calls inconclusive (neither active nor inactive); the mix of calls is not that of the screen. The call rests on the fitted dose curve; in most records, active means well fitted inhibition curve with a large enough effect; inconclusive means small, poorly fitted or top-dose-only effect, or another doubt; inactive means no such curve, though single readings can be large or run the other way. A potency beside an inconclusive call is a rough fit, not a confirmed value. Where a SMILES comes first, the peptide text is derived from it. The star is where a group is joined. Boc = CC(C)(C)OC(=O)*; Bn = c1ccc(C*)cc1
# Test: Primary qHTS for delayed death inhibitors of the malarial parasite plastid, 96 hour incubation
# Settings: P. falciparum luciferase reporter growth; series mostly up to 28.7 µM
# Summary of the method: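 Infected RBCs, 2% Hct / 0.05% parasitemia final; luciferase-reporter P. falciparum; cpd 96 h, 37 C, 5% CO2; luciferase detection reagent; luminescence.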
# On the % scale 0 is the no-effect control and ±100 the full control effect; potency means the concentration at half of the fitted maximal effect.
SMILES,Potency,"activity change, negative = inhibition"
CCCCN(CCCC)CP(=O)(c1ccccc1)c1ccccc1,inactive,
O=c1oc2ccccc2nc1/C=C(O)/C=C\c1ccccc1,inactive,
C/C(N)=C(/C#N)C(=O)COc1ccc(Cl)cc1Cl,inactive,
O=C(Nc1cccc(S(=O)(=O)NC2=NCCC2)c1)c1ccc(OC(F)F)cc1,inactive,
COc1ccc(-c2csc(NC(=O)C3CC(=O)N(Cc4ccco4)C3)n2)cc1 (stereo unspecified),"inconclusive: 0.0026 µM [inhibitor, full curve, poor fit]",
CC(C)CC(NC(=O)C(NC(=O)C(Cc1ccc(OCc2ccccc2)cc1)NC(=O)OC(C)(C)C)C(C)C)C(N)=O (stereo not drawn) (Boc-Tyr(Bn)-Val-Leu-NH2; configuration not given here),"inconclusive: 0.165 µM [inhibitor, full curve, poor fit]",
Cc1cc(C)cc(N(CC(=O)NC2CCC(C)CC2)S(=O)(=O)c2c(C)noc2C)c1 (stereo unspecified),"inconclusive: 18.5 µM [inhibitor, single point]",
CCOc1ccc2ncc(S(=O)(=O)c3ccc(C)cc3)c(N3CCC4(CC3)OCCO4)c2c1,active: 7.38 µM,
COc1ccccc1NC(=O)C1CCCN(S(=O)(=O)c2ccccc2)C1 (stereo unspecified),"inconclusive: 18.5 µM [inhibitor, single point]",
Cc1csc(NC(=O)c2ccccc2)n1,"inconclusive: 20.8 µM [inhibitor, partial curve, poor fit]",
COc1ccc(OC)c(NC(=O)C2CC(=O)N(c3ccc(Br)cc3)C2)c1 (stereo unspecified),"inconclusive: 18.5 µM [inhibitor, single point]",
O=C(c1ccc2c(=O)n(CCc3ccccc3)c(=O)[nH]c2c1)N1CCN(c2ccccc2)CC1,"inconclusive: 14.7 µM [inhibitor, partial curve, poor fit]",
CCOC(=O)c1[nH]c2ccc(F)cc2c1NC(=O)c1ccccc1C(=O)O,inactive,
CC(CC(=O)N1CCN(S(=O)(=O)c2ccc([N+](=O)[O-])cc2)CC1)c1ccccc1 (stereo unspecified),"inconclusive: 10.4 µM [inhibitor, single point]",
CCn1nc(C)c(NS(=O)(=O)c2ccccc2)c1C,inactive,
COc1ccccc1OCc1ccc(C(=O)N/N=C/c2ccco2)cc1,"inconclusive: 18.5 µM [inhibitor, single point]",
Cc1ccc(NC(=O)C2CC2C)c(Cl)c1 (stereo unspecified),inactive,
Cc1ccc(NC(=O)CCC(=O)N/N=C/c2ccccc2O)cc1,inactive,
COC(=O)CNC(=O)COC(=O)c1ccc(OC)c([N+](=O)[O-])c1,inactive,
S=C(NCc1ccccn1)Nc1ccccc1Cl,inactive,
Cc1ccc(NC(=O)C2CCN(S(=O)(=O)c3ccccc3)CC2)cc1,inactive,
CN(C)CC(=O)c1c[nH]c2ccccc12,"inconclusive: 0.0738 µM [inhibitor, full curve, poor fit]",
CCCCC(=O)Nc1nn(C)c2nc3c(C)cccc3cc12,"inconclusive: 0.37 µM [inhibitor, partial curve, poor fit]",
Cc1cc(N)ccc1N1CCCC1,active: 0.415 µM,

# Molecules from the list above that contain a nitro group on carbon:
SMILES,Potency,"activity change, negative = inhibition"
CC(CC(=O)N1CCN(S(=O)(=O)c2ccc([N+](=O)[O-])cc2)CC1)c1ccccc1 (stereo unspecified),"inconclusive: 10.4 µM [inhibitor, single point]",
COC(=O)CNC(=O)COC(=O)c1ccc(OC)c([N+](=O)[O-])c1,inactive,

# Further entries

SMILES,Potency,"activity change, negative = inhibition"
Cc1c(C(=O)O)cccc1-n1c(C)cc(/C=C(/C#N)C(=O)NCc2ccccc2)c1C,"inconclusive: 10.4 µM [inhibitor, single point]",
CCOc1ccc(-n2nnnc2-c2nc3ccccc3s2)cc1,"inconclusive: 16.5 µM [inhibitor, single point]",
O=C(Nc1cc(S(=O)(=O)N2CCOCC2)ccc1N1CCOCC1)c1cccc(S(=O)(=O)N2CCCCC2)c1,"inconclusive: 7.38 µM [inhibitor, partial curve]",
Cc1ccc(C)c(/C=C(\C(=O)O)c2ccc(S(=O)(=O)N3CCCCC3)s2)c1,inactive,
CC1(C)CCSC(/C=C/c2ccccc2)=N1,"inconclusive: 5.22 µM [inhibitor, partial curve, poor fit]",
COC(=O)C1=C(c2ccc(-c3ccccc3)c(F)c2)C[C@@H]2CC[C@H]1N2C(=O)NCCOc1ccc(OC)cc1,"inconclusive: 2.62 µM [inhibitor, full curve]",
COc1ccc(CCN(C(=O)c2ccc(F)cc2)C2=CC3CCC(C2)N3C)cc1OC (stereo unspecified),"inconclusive: 2.94 µM [inhibitor, full curve]",
N#C/C(=C/c1cc(Cl)c(O)c(Cl)c1)C(=O)N1CCCCC1,"inconclusive: 18.5 µM [inhibitor, single point]",
CS(=O)(=O)N1CCC(C(=O)N2CCC(Cc3ccccc3)CC2)CC1,"inconclusive: 9.28 µM [inhibitor, single point]",
COc1cc(C(=O)NCCc2c[nH]c3ccccc23)ccc1OCc1c(C)noc1C,"inconclusive: 11.7 µM [inhibitor, partial curve, poor fit]",
CC(=O)c1sc(N/N=C2\CC3CC2C(C)C3(C)C)nc1C (stereo unspecified),"inconclusive: 10.4 µM [inhibitor, single point]",
COc1ccc(C)cc1C(=O)C1CC(C(=O)O)C(C)(C)C1C (stereo unspecified),"inconclusive: 4.15 µM [inhibitor, single point]",
CC(=O)Nc1ccc(NC(=O)c2ccc(COc3ccccc3Br)o2)cc1,inactive,
CC(=O)C1=C(O)C(=O)N(c2cccc(C(=O)O)c2)C1c1ccc(F)cc1 (stereo unspecified),"inconclusive: 9.28 µM [inhibitor, single point]",
CCCCCC(=O)NC(=S)Nc1cccc(C(C)=O)c1,"inconclusive: 18.5 µM [inhibitor, single point]",
FC(F)(F)c1cccc(CNC(=S)Nc2ccccc2)c1,"inconclusive: 18.5 µM [inhibitor, single point]",
Cc1cc(Cl)c(S(=O)(=O)N2CCN(c3ccc(F)cc3)CC2)cc1OCC(=O)NC1CCCCC1,active: 6.57 µM,
COc1ccc(S(=O)(=O)N2CCOCC2)cc1NC(=O)CN1CCCC1,inactive,
O=C(O)c1ccc(-n2cc(-c3cc4ccccc4oc3=O)[nH]c2=S)cc1,active: 0.165 µM,
COc1ccc(CN2CCN(C(=O)c3c(-c4ccccc4)noc3C)CC2)cc1F,inactive,
Cc1ccccc1NC(=O)Cc1nnc(N)s1,inactive,
COc1ccc(C(=O)N2CCN(c3ncnc4c(-c5ccccc5)nsc34)CC2)cc1,"inconclusive: 20.8 µM [inhibitor, single point]",
CCNCc1cc2cc(C)ccc2[nH]c1=O,inactive,
COc1ccc2[nH]c(C)c(CCN3C(=O)C4CC=CCC4C3=O)c2c1 (stereo unspecified),inactive,

SMILES,Potency,"activity change, negative = inhibition"
Cc1c(N=NC2=C(O)CCCC2=O)c(=O)n(-c2ccccc2)n1C,,inactive: 38.1% [at 5.75 µM]
Cn1c(SCCSc2nnc(-c3ccccc3)n2C)nnc1-c1ccccc1,"inconclusive: 0.522 µM [inhibitor, partial curve, poor fit]",
CC1=C(C(=O)Nc2cccc(C(=O)NC(C)c3ccccc3)c2)SCCO1 (stereo unspecified),"inconclusive: 16.5 µM [inhibitor, single point]",
CS(=O)(=O)N(CC(=O)N1CCCCCC1)c1cc(Cl)ccc1Cl,"inconclusive: 13.1 µM [inhibitor, single point]",
O=C(CN1CCCCC1)Nc1ccc(Br)cc1C(=O)c1ccccc1Cl,active: 1.85 µM,
COc1ccc(/C=C/C(=O)NC(C)C)cc1Br,"inconclusive: 8.28 µM [inhibitor, partial curve, poor fit]",
COC(=O)c1c(NC(=O)C2CC(=O)NN2Cc2ccccc2)sc(C)c1C (stereo unspecified),"inconclusive: 9.28 µM [inhibitor, single point]",
O=C(c1cn(Cc2ccccc2)nc1-c1cccnc1)N1CCN(Cc2c(F)cccc2Cl)CC1,"inconclusive: 11.7 µM [inhibitor, single point]",
CC(C)c1ccc(NC(=O)C2CCN(S(=O)(=O)c3ccc4c(c3)C(C)(C)C(=O)N4C)CC2)cc1,inactive,
Cc1cc(C)cc(NC(=O)COc2coc(CN3CCc4ccccc43)cc2=O)c1,"inconclusive: 20.8 µM [inhibitor, partial curve, poor fit]",
COc1cc2c(cc1OC)C(c1ccc([N+](=O)[O-])cc1)NC(=O)C2 (stereo unspecified),"inconclusive: 18.5 µM [inhibitor, single point]",
COc1ccc(-n2c(SCC(=O)N3CCCCC3C)nnc2-c2cccnc2)cc1 (stereo unspecified),"inconclusive: 13.1 µM [inhibitor, single point]",
c1ccc2cc(OCc3nc4ccccc4[nH]3)ccc2c1,inactive,
COc1ccc(N2CCN(C(=O)C(NC(=O)c3c(F)cccc3F)C(C)C)CC2)cc1 (stereo unspecified),"inconclusive: 18.5 µM [inhibitor, single point]",
C#CCOc1ccccc1C(N)=O,inactive,
CCCCn1c(O)c(C(C)=Nc2c(C)n(C)n(-c3ccccc3)c2=O)c(=O)[nH]c1=O,"inconclusive: 0.0047 µM [inhibitor, full curve, poor fit]",
Cc1cc(S(=O)(=O)N2CCOCC2)ccc1OCC(=O)NCCN1CCOCC1,inactive,
Nc1c(S(=O)(=O)c2cccs2)c2nc3ccccc3nc2n1CC1CCCO1 (stereo unspecified),inactive,
COCCN1CN(S(=O)(=O)c2cccc(Cl)c2)c2nc3ccccc3nc21,"inconclusive: 7.38 µM [inhibitor, partial curve]",
CC1=C(OC(=O)C(C)(C)C)C(C)(C)C(c2ccccc2)OC1=O (stereo unspecified),"inconclusive: 16.5 µM [inhibitor, single point]",
COc1cc(OC)cc(C(=O)Nc2cc(C)nn2-c2ccccc2)c1,"inconclusive: 0.165 µM [inhibitor, full curve, poor fit]",
O=C(CCS(=O)(=O)c1ccc(Br)cc1)NCCc1ccccc1,inactive,
O=C(NCCN1CCCCCC1)C1CCCN1S(=O)(=O)c1cccc2nsnc12 (stereo unspecified),"inconclusive: 18.5 µM [inhibitor, single point]",

# Part of the list above, bar-delimited:
SMILES | Potency | activity change, negative = inhibition
COC(=O)c1c(NC(=O)C2CC(=O)NN2Cc2ccccc2)sc(C)c1C (stereo unspecified) | inconclusive: 9.28 µM [inhibitor, single point] | 
c1ccc2cc(OCc3nc4ccccc4[nH]3)ccc2c1 | inactive | 
